We go through 2 molecules from paper PMC7673134.

Amino acid sequences for entries named in this document (tags omitted).
UniProt Q94AH6: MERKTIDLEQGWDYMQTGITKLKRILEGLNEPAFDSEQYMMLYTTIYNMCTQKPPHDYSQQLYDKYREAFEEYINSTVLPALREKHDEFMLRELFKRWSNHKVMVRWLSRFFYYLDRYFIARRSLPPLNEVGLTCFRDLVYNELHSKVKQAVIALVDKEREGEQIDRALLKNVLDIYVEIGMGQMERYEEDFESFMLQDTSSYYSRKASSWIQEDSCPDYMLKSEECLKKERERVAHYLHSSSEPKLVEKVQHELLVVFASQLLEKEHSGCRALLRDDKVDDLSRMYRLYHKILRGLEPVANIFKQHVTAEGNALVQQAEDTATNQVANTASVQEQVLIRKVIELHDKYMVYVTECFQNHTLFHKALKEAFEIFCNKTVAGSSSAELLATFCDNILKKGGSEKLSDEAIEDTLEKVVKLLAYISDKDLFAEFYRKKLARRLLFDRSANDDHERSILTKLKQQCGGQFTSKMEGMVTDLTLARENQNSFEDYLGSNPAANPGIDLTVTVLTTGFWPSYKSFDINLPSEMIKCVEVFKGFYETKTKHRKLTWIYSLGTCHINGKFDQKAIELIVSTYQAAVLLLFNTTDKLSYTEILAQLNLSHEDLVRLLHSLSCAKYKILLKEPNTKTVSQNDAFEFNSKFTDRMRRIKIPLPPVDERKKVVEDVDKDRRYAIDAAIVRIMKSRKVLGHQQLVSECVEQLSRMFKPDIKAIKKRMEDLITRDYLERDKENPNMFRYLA

These are yes or no findings as the source states them, for the method shown. Binding seen in cells or lysates may run through a third protein. Here binding means that the protein was enriched with, or labelled near, the bait; the list need not be complete.

Assay [1] addresses Col-SSF414N-GFP (A. thaliana) (UniProt F4IL32). Put plainly: affinity purification with mass spectrometry; protein pulldown of GFP-tagged SSF from Col-SSF414N-GFP and Col-SSF414D-GFP transgenic plants; SDS-PAGE gel pieces, trypsin, nanoLC-MS/MS.
Assay [2] deals with Col-SSF414D-GFP (A. thaliana). The description is as above.

Turning to “CUL1 (At4g02570) (from UniProt Q94AH6 1-738)”, in assay [1], the binding result is “binds”.

B1: CAND1 (At2g02560) (protein, UniProt Q8L5Y6 1-1219)
chain: MANLQVSGILEKFQMTGKDKDYRYMATSDLLNELNKDSFKIDLDLEVRLSSIILQQLDDVAGDVSGLAVKCLAPLVKKVGEERIVEMTNKLCDKLLHGKDQHRDTASIALRTVVAQIAPTLAPSILVTLTPQMIGGISGQGMSSGIKCECLEIMCDVVQKYGSLMTDDHEKLLNTLLLQLGCNQATVRKKTVTCIASLASSLSDDLLAKATVEVVKNLSNRNAKSEITRTNIQMIGALCRAVGYRFGTHLGNTVPVLINYCTSASENDEELREYSLQALESFLLRCPRDISPYCDEILNLTLEYISYDPNFTDNMEEDTDNETLEDEEDDESANEYTDDEDASWKVRRAAAKCLAGLIVSRSEMLTKVYQEACPKLIDRFKEREENVKMDVFNTFIDLLRQTGNVTKGQTDTDESSPKWLLKQEVSKIVKSINRQLREKSVKTKVGAFSVLRELVVVLPDCLADHIGSLVPGIERALNDKSSTSNLKIEALVFTKLVLASHAPPVFHPYIKALSSPVLAAVGERYYKVTAEALRVCGELVRVVRPSTAGMGFDFKPFVHPIYNAIMSRLTNQDQDQEVKECAITCMGLVISTFGDQLRAELPSCLPVLVDRMGNEITRLTAVKAFSVIATSPLHINLSCVLDHLIAELTGFLRKANRVLRQATLITMNTLVTAYGDKIGSEAYEVILVELSSLISVSDLHMTALALELCCTLMTGKSCSENISLAVRNKVLPQALTLVKSPLLQGQALLDLQKFFEALVYHANTSFYTLLESLLSCAKPSPQSGGVPKQALYSIAQCVAVLCLAAGDKNCSSTVKMLMEILKDDSGTNSAKQHLALLSLGEIGRRKDLSAHAGIETIVIESFQSPFEEIKSAASYALGNIAVGNLSNYLPFILDQIDNQQKKQYILLHSLKEVIVRQSVDKADFQNSSVEKILALLFNHCESEEEGVRNVVAECLGKMALIEPEKLVPALQVRTTSPAAFTRATVVTAVKYSVVERPEKLDEIIFPQISSFLMLIKDGDRHVRRAAVSALSTFAHYKPNLIKGLLPELLPLLYDQTVIKKELIRTVDLGPFKHVVDDGLELRKAAFECVFTLVDSCLDQVNPSSFIVPFLKSGLEDHYDLKMLCHLILSLLADKCPSAVLAVLDSLVEPLHKTISFKPKQDAVKQEHDRNEDMIRSALRAISSLDRINGVDYSHKFKGLMGDMKRSVPLWEKFQTIRNE
Regarding B1, the binding result in assay [2] and in assay [1] was “binds” in each case.
